Measured values reported in the supplement of paper PMC7666118.
Some of the results follow.

The chains behind the UniProt entries cited, without tags or fusion partners. Where a name states a change or a piece, a line headed by the entry shows the natural chain unless it says otherwise.
UniProt Q8NDX1: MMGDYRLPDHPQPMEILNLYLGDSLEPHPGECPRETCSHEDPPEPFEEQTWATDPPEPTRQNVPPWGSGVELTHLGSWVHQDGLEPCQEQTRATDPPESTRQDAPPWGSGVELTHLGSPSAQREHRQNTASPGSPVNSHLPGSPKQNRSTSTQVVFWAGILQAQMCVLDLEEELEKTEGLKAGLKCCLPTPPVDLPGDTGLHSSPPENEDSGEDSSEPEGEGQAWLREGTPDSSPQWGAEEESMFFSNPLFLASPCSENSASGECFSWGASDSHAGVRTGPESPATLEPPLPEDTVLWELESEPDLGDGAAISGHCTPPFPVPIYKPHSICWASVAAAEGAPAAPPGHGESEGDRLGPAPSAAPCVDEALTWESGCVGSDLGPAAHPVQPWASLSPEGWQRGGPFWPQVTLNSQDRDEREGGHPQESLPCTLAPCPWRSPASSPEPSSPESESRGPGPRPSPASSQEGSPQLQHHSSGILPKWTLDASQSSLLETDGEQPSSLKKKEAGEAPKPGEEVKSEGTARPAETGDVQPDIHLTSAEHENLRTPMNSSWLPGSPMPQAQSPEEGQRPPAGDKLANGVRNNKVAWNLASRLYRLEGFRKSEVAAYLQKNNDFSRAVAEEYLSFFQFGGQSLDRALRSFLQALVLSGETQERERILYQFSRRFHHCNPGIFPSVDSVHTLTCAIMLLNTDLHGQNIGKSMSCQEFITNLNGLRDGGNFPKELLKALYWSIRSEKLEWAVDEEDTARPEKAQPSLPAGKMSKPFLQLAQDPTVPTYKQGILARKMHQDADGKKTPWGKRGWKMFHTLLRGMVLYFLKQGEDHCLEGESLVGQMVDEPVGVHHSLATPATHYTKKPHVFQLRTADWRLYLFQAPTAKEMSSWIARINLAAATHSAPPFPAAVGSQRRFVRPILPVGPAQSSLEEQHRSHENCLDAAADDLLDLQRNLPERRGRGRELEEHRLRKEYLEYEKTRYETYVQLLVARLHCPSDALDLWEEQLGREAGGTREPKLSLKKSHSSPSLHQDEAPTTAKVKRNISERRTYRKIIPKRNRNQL
UniProt Q8NAV1: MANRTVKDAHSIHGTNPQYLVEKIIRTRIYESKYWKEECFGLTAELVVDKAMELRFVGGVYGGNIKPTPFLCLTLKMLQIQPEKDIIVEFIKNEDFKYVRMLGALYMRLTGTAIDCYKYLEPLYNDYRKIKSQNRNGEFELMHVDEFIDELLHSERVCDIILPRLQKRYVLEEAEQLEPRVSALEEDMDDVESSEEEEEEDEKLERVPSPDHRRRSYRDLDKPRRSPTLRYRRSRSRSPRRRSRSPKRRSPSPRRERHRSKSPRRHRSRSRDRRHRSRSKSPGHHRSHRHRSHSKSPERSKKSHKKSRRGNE
UniProt P61020: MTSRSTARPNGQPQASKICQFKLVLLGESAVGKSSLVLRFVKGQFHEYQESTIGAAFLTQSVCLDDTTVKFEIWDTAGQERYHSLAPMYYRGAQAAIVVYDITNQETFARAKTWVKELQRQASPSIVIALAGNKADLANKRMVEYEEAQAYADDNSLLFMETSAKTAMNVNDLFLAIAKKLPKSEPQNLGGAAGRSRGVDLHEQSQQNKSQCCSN
UniProt O75127: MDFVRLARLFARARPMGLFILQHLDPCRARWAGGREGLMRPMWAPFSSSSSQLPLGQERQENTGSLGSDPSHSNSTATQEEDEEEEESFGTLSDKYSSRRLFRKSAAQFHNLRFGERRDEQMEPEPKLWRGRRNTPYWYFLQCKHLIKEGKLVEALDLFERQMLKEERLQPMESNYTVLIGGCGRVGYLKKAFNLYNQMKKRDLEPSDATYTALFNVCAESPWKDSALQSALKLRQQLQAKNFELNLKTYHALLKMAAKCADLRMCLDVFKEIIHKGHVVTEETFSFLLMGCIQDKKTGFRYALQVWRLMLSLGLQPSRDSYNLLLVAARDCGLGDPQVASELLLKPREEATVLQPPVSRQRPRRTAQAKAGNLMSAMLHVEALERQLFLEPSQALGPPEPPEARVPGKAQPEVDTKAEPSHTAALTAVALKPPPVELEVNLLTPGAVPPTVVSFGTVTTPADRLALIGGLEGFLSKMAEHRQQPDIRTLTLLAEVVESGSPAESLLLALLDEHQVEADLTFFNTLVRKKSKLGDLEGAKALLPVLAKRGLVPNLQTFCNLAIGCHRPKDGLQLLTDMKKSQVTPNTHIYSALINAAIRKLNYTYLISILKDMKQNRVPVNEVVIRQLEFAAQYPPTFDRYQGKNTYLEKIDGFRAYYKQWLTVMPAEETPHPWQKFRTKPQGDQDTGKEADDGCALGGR
UniProt Q9UJ41, whole entry: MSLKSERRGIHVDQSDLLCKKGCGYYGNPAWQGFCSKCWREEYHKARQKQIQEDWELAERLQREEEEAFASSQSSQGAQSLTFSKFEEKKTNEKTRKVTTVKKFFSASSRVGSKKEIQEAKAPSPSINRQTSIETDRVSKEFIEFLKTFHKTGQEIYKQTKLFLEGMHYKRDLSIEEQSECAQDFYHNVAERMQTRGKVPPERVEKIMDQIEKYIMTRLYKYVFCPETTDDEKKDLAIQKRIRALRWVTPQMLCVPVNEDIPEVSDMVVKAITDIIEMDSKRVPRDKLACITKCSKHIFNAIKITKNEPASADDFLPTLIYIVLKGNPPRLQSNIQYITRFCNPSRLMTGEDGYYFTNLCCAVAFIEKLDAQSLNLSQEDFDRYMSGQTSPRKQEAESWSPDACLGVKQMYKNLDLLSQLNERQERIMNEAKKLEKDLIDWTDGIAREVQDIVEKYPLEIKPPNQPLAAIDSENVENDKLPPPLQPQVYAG
UniProt P29350: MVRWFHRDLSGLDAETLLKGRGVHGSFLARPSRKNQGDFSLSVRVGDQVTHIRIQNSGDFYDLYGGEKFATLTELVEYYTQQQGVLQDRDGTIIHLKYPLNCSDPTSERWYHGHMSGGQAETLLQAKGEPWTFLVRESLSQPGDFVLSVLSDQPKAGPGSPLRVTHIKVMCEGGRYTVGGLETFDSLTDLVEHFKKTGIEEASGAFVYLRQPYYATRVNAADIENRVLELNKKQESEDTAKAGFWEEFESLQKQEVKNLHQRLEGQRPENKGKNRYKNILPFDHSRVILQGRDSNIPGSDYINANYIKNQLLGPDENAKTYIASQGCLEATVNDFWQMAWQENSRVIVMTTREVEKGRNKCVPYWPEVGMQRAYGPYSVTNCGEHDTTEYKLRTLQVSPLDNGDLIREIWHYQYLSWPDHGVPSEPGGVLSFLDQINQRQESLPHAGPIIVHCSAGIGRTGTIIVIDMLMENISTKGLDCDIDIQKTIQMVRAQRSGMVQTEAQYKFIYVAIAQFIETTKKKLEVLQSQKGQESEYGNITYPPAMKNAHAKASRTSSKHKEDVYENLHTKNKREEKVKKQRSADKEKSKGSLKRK
UniProt Q9H0Z9: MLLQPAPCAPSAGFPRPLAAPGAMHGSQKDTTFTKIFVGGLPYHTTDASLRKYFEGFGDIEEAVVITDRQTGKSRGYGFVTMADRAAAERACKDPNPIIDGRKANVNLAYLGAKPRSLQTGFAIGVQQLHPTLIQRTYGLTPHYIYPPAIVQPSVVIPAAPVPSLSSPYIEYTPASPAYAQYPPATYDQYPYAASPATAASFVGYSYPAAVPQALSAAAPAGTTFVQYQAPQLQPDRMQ
UniProt P28074: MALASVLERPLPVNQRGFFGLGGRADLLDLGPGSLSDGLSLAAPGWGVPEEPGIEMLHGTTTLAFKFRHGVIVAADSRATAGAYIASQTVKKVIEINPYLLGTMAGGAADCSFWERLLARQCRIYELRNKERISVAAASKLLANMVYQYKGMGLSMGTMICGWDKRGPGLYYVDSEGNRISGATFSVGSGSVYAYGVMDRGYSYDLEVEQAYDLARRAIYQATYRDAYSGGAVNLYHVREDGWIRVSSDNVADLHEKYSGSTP
UniProt P62333, whole entry: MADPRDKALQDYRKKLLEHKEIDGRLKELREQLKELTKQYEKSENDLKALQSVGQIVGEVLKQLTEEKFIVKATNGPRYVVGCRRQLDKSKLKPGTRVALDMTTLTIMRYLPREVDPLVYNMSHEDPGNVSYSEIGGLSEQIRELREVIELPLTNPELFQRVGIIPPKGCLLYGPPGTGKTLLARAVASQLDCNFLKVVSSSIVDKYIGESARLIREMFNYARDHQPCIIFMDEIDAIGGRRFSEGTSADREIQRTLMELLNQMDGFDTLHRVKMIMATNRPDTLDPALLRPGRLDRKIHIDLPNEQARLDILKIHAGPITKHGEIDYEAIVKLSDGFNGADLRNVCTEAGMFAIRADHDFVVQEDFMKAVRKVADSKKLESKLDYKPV
UniProt Q86TP1: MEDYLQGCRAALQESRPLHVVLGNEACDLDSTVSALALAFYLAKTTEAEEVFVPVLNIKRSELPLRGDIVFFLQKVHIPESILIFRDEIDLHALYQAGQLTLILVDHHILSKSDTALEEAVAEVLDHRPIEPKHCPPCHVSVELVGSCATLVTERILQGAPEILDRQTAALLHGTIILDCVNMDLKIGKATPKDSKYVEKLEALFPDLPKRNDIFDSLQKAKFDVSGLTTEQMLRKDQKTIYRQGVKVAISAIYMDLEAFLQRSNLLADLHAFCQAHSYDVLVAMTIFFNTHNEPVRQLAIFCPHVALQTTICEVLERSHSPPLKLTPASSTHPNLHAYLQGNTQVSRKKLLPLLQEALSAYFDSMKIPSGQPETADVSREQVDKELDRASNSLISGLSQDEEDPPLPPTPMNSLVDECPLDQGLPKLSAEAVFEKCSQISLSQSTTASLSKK
UniProt Q9Y3L5: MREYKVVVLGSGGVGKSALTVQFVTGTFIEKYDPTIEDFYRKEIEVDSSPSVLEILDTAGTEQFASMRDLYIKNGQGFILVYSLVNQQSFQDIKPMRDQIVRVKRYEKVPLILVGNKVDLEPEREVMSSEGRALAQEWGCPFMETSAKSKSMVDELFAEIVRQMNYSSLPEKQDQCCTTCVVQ

These targets were tested with COc1ccc(Cn2ccc3ccc(C(=O)NO)cc32)cc1 (assay: dose-dependent thermal stabilisation call (2D-TPP, DLPTP, 10% FDR) (binary (1 = stabilised)); higher = stabilised by the compound). Conditions: system: HL-60 intact cells; concentration range 0.04-10 µM.

**Q.** With PSD4 (UniProt Q8NDX1) as the target, how does the “dose-dependent thermal stabilisation call” value read?
**A.** inactive: 0

**Q.** How did the “dose-dependent thermal stabilisation call” value turn out when PRPF38A (UniProt Q8NAV1) was run?
**A.** inactive: 0

**Q.** Which “dose-dependent thermal stabilisation call” value does the source give for RAB5B (UniProt P61020) here?
**A.** inactive: 0

**Q.** PTCD1 (UniProt O75127) was tested. Which “dose-dependent thermal stabilisation call” value did it give?
**A.** inactive: 0

**Q.** With RABGEF1 (UniProt Q9UJ41) as the target, how does the “dose-dependent thermal stabilisation call” value read?
**A.** inactive: 0

**Q.** With PTPN6 (UniProt P29350) as the target, how does the “dose-dependent thermal stabilisation call” value read?
**A.** inactive: 0

**Q.** With RBM38 (UniProt Q9H0Z9) as the target, how does the “dose-dependent thermal stabilisation call” value read?
**A.** inactive: 0

**Q.** With PSMB5 (UniProt P28074) as the target, how does the “dose-dependent thermal stabilisation call” value read?
**A.** inactive: 0

**Q.** For PSMC6 (UniProt P62333), which “dose-dependent thermal stabilisation call” value is on record?
**A.** inactive: 0

**Q.** For PRUNE (UniProt Q86TP1), which “dose-dependent thermal stabilisation call” value is on record?
**A.** inactive: 0

**Q.** How did the “dose-dependent thermal stabilisation call” value turn out when RAP2C (UniProt Q9Y3L5) was run?
**A.** inactive: 0
